Source: publication PMC9700621, “Novel RAB27A Variant Associated with Late-Onset Hemophagocytic Lymphohistiocytosis Alters Effector Protein Binding” (Journal of Clinical Immunology, 2022)
These are yes or no findings as the source states them, for the method shown. In cells and extracts the contact can be indirect. Some results given as binding are weak or reduced against the parent protein; the word gives no strength. Sequences can lack the tags named with a protein.

What was measured:
Test in all cases: co-IP; HEK-293FT cells co-transfected with FLAG-RAB27A constructs and a MYC-tagged effector; lysis in 25 mM Tris-HCl pH 8.0, 150 mM NaCl, 1% TritonX-100, 5 mM EDTA, 10 mM DTT; goat anti-FLAG immunoprecipitation on protein G beads; blots with anti-Myc and anti-FLAG, quantified
[1] = target: FLAG-RAB27A p.Q78L + p.R184Q (human) (UniProt P51159)
[2] = target: FLAG-RAB27A p.T23N (human) (UniProt P51159)
[3] = target: FLAG-RAB27A wild-type (human) (UniProt P51159)
[4] = target: FLAG-RAB27A p.Q78L (human) (UniProt P51159)
FLAG-RAB27A p.R184Q = target: T1, FLAG-RAB27A p.R184Q (human, UniProt P51159-1 1-221, p.R184Q)
T1 construct: RAB27A, human, with the patient's variant p.R184Q made by site-directed mutagenesis; variant found homozygous in the patient; also called patient-derived p.R184Q variant; RAB27A c.551G > A p.(R184Q); source: HEK-293FT, transfected, in lysate; not shown: 3xFLAG, N-terminal, kept
T1 sequence (looked up): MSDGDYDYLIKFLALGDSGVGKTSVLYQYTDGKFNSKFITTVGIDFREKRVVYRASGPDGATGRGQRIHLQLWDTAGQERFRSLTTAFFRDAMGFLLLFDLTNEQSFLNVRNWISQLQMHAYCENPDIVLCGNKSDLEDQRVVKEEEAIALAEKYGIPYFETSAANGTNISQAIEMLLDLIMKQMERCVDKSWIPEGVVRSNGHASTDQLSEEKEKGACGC

Measured: binding

B1: MYC-MUNC13-4 (natural protein, UniProt Q70J99 1-1090, looked up)
chain: MATLLSHPQQRPPFLRQAIKIRRRRVRDLQDPPPQMAPEIQPPSHHFSPEQRALLYEDALYTVLHRLGHPEPNHVTEASELLRYLQEAFHVEPEEHQQTLQRVRELEKPIFCLKATVKQAKGILGKDVSGFSDPYCLLGIEQGVGVPGGSPGSRHRQKAVVRHTIPEEETHRTQVITQTLNPVWDETFILEFEDITNASFHLDMWDLDTVESVRQKLGELTDLHGLRRIFKEARKDKGQDDFLGNVVLRLQDLRCREDQWYPLEPRTETYPDRGQCHLQFQLIHKRRATSASRSQPSYTVHLHLLQQLVSHEVTQHEAGSTSWDGSLSPQAATVLFLHATQKDLSDFHQSMAQWLAYSRLYQSLEFPSSCLLHPITSIEYQWIQGRLKAEQQEELAASFSSLLTYGLSLIRRFRSVFPLSVSDSPARLQSLLRVLVQMCKMKAFGELCPNTAPLPQLVTEALQTGTTEWFHLKQQHHQPMVQGIPEAGKALLGLVQDVIGDLHQCQRTWDKIFHNTLKIHLFSMAFRELQWLVAKRVQDHTTVVGDVVSPEMGESLFQLYISLKELCQLRMSSSERDGVLALDNFHRWFQPAIPSWLQKTYNEALARVQRAVQMDELVPLGELTKHSTSAVDLSTCFAQISHTARQLDWPDPEEAFMITVKFVEDTCRLALVYCSLIKARARELSSGQKDQGQAANMLCVVVNDMEQLRLVIGKLPAQLAWEALEQRVGAVLEQGQLQNTLHAQLQSALAGLGHEIRTGVRTLAEQLEVGIAKHIQKLVGVRESVLPEDAILPLMKFLEVELCYMNTNLVQENFSSLLTLLWTHTLTVLVEAAASQRSSSLASNRLKIALQNLEICFHAEGCGLPPKALHTATFQALQRDLELQAASSRELIRKYFCSRIQQQAETTSEELGAVTVKASYRASEQKLRVELLSASSLLPLDSNGSSDPFVQLTLEPRHEFPELAARETQKHKKDLHPLFDETFEFLVPAEPCRKAGACLLLTVLDYDTLGADDLEGEAFLPLREVPGLSGSEEPGEVPQTRLPLTYPAPNGDPILQLLEGRKGDREAQVFVRLRRHRAKQASQHALRPAP
notes: MUNC13-4; 'MYC-tagged, full-length SLP2A, MUNC13-4'; source: HEK-293FT, transfected, in lysate; not shown: MYC, N-terminal, kept
binds: [1] | [2] | [3]

B2: MYC-MELANOPHILIN (protein, UniProt Q9BV36 1-600)
chain: MGKKLDLSKLTDEEAQHVLEVVQRDFDLRRKEEERLEALKGKIKKESSKRELLSDTAHLNETHCARCLQPYQLLVNSKRQCLECGLFTCKSCGRVHPEEQGWICDPCHLARVVKIGSLEWYYEHVKARFKRFGSAKVIRSLHGRLQGGAGPELISEERSGDSDQTDEDGEPGSEAQAQAQPFGSKKKRLLSVHDFDFEGDSDDSTQPQGHSLHLSSVPEARDSPQSLTDESCSEKAAPHKAEGLEEADTGASGCHSHPEEQPTSISPSRHGALAELCPPGGSHRMALGTAAALGSNVIRNEQLPLQYLADVDTSDEESIRAHVMASHHSKRRGRASSESQIFELNKHISAVECLLTYLENTVVPPLAKGLGAGVRTEADVEEEALRRKLEELTSNVSDQETSSEEEEAKDEKAEPNRDKSVGPLPQADPEVGTAAHQTNRQEKSPQDPGDPVQYNRTTDEELSELEDRVAVTASEVQQAESEVSDIESRIAALRAAGLTVKPSGKPRRKSNLPIFLPRVAGKLGKRPEDPNADPSSEAKAMAVPYLLRRKFSNSLKSQGKDDDSFDRKSVYRGSLTQRNPNARKGMASHTFAKPVVAHQS
binds: [4] | [2] | [3] | FLAG-RAB27A p.R184Q
